# Several values for one entry are separate records, joined by “and”; a condition that tells them apart may be missing. Equal entries are not always repeated. Inconclusive means that the source gave no clear call. Such entries were picked first, then a sample of the others. For some of these results: Where the call is inconclusive, the potency comes from a doubtful curve fit. Activity calls are given as the source filed them. How the source made its calls: active means hit-call score of the fitted dose curve at least 0.9, where 1 is the maximum; inconclusive means response in the unintended direction; inactive means score below 0.9.
# Protein sequences, listed by entry. Tags and fused reporters are not part of them.
# UniProt P06212, whole entry, looked up: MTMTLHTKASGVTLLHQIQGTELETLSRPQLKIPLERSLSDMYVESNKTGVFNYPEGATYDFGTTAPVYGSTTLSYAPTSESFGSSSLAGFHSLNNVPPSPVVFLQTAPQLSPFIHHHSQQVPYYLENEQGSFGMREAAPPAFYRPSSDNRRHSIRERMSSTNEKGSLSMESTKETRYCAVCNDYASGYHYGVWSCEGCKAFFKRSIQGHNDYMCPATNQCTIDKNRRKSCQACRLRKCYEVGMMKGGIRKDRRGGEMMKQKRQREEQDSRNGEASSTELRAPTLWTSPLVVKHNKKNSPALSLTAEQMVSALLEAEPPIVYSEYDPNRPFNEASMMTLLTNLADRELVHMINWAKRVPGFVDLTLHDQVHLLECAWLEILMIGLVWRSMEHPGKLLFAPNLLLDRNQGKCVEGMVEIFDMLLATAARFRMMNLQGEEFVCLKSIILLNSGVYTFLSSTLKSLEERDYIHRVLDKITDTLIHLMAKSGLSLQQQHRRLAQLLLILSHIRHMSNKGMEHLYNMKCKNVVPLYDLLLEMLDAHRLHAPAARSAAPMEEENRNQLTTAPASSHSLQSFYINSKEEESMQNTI
# Assays:
# [1] = molecular target: chicken Estrogen Receptor (ERa), ESR1 (gene 396099) (UniProt P06212); test: ATG_chERa_XSP2: Attagene TRANS-FACTORIAL Multi-Species (XSP2) HepG2 Assay for chicken Estrogen Receptor (ERa) (AID 2283817);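 further: actives raise reporter signal above DMSO so AC50 reflects ER activation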
# In short: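 Transient MRTU transfection of HepG2 → 24 h chemical dosing → TriZol RNA, oligo(dT) RT → PCR, 6-FAM primer extension, HpaI digest → CE quantitation of chicken ERa-Gal4-driven reporter mRNA. Positive direction vs DMSO.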
# [2] = system: chicken Androgen Receptor (AR), gene 422165; test: ATG_chAR_XSP2: Attagene TRANS-FACTORIAL Multi-Species (XSP2) HepG2 Assay for chicken Androgen Receptor (AR) (AID 2283819);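 further: hits raise reporter mRNA above DMSO so potency is for activation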
# In short: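 HepG2 cells transiently transfected with chicken AR–GAL4 chimeric reporter constructs, stimulated with 3 nM 6-alpha-fluorotestosterone plus 1.5 nM norgestrel, dosed 24 h. Reporter mRNA quantified by RT-PCR and capillary electrophoresis; gain of signal fitted versus DMSO.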
# [3] = system: zebrafish Androgen Receptor (AR), gene 100005148; test: ATG_zfAR_XSP2: Attagene TRANS-FACTORIAL Multi-Species (XSP2) HepG2 Assay for zebrafish Androgen Receptor (AR) (AID 2283825);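 further: hits raise reporter mRNA above DMSO so AC50 reflects agonist-type gain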
# In short: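 Zebrafish AR–GAL4 chimera transiently expressed with GAL4-UAS reporter in HepG2 cells, co-stimulated with 3 nM 6-alpha-fluorotestosterone and 1.5 nM norgestrel; 24 h dosing, reporter mRNA read by RT-PCR/capillary electrophoresis versus DMSO.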
# [4] = system: frog Estrogen Receptor (ER2), gene 100174814; test: ATG_frER2_XSP2: Attagene TRANS-FACTORIAL Multi-Species (XSP2) HepG2 Assay for frog Estrogen Receptor (ER2) (AID 2283828)
# In short: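 Multiplexed transactivation in HepG2: frog estrogen receptor fused to Gal4 drives a UAS reporter. Signal is reporter mRNA after 24 h treatment.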
# [5] = system: zebrafish Estrogen Receptor (ER2a), gene 317734; test: ATG_zfER2a_XSP2: Attagene TRANS-FACTORIAL Multi-Species (XSP2) HepG2 Assay for zebrafish Estrogen Receptor (ER2a) (AID 2283818);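 further: hits raise reporter mRNA so AC50 reflects activation of zebrafish ER2a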
# In short: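 HepG2 cells transiently transfected with GAL4-UAS reporter units and chimeric zebrafish ER2a-Gal4, exposed 24 h; medium contains 3 nM 6-alpha-fluorotestosterone and 1.5 nM norgestrel. Reporter mRNA quantified by RT-PCR, HpaI digestion, capillary electrophoresis; gain versus DMSO.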
# [6] = ATG_M_19_XSP2: Attagene TRANS-FACTORIAL Multi-Species (XSP2) HepG2 Assay for M32 Transcription Factor (Internal Marker) (AID 2283822)
# In short: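 Internal background marker in a multi-species nuclear receptor TRANS panel: transfected HepG2 cells exposed 24 h, with 3 nM 6-alpha-fluorotestosterone and 1.5 nM norgestrel present. Readout is RT-PCR of reporter transcripts resolved by capillary electrophoresis, gain-of-signal versus DMSO.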
# [7] = ATG_M_32_XSP2: Attagene TRANS-FACTORIAL Multi-Species (XSP2) HepG2 Assay for M19 Transcription Factor (Internal Marker) (AID 2283826)
# In short: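 HepG2 cells transiently transfected with GAL4-UAS reporter units; XSP2 panel included 3 nM 6-alpha-fluorotestosterone and 1.5 nM norgestrel for androgen receptor stimulation. Reporter mRNA read 24 h post-dosing by RT-PCR/capillary electrophoresis; fitted upward versus DMSO.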
# [8] = system: zebrafish Estrogen Receptor (ER2b), gene 317733; test: ATG_zfER2b_XSP2: Attagene TRANS-FACTORIAL Multi-Species (XSP2) HepG2 Assay for zebrafish Estrogen Receptor (ER2b) (AID 2283823);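 further: fitted upward as reporter gain over DMSO so potency reflects activation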
# In short: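 Reporter transcripts quantified by RT-PCR, fluorescent labelling and capillary electrophoresis after 24 h dosing of transfected HepG2 expressing zebrafish ER2b-GAL4 fusion. Medium contained 3 nM 6-alpha-fluorotestosterone plus 1.5 nM norgestrel; DMSO baseline.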
# [9] = system: frog Androgen Receptor (AR), gene 399456; test: ATG_frAR_XSP2: Attagene TRANS-FACTORIAL Multi-Species (XSP2) HepG2 Assay for frog Androgen Receptor (AR) (AID 2283824);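 further: actives raise reporter signal above DMSO so AC50 reflects agonist-like induction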
# In short: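 HepG2 cells transiently transfected with GAL4-UAS reporter units and frog (Xenopus laevis) AR-Gal4 chimera; reporter mRNA measured 24 h after dosing by RT-PCR and capillary electrophoresis. Gain of signal fitted relative to DMSO baseline.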
compound,measurement,setting,value
C[C@]12CCC(=O)C[C@@H]1CC[C@@H]1[C@@H]2CC[C@]2(C)[C@@H](O)CC[C@@H]12,outcome,[1],inactive
same,AC50,[2],active: 0.198 µM
same,outcome,[3],inactive
same,AC50,[4],inconclusive: 0.000497 µM
CC(C)Oc1cc(-n2nc(C(C)(C)C)oc2=O)c(Cl)cc1Cl,AC50,[5],active: 63.5 µM
same,AC50,[6],inconclusive: 190 µM
same,AC50,[3],inconclusive: 0.119 µM
same,AC50,[7],inconclusive: 0.0566 µM
C#CCOS(=O)OC1CCCCC1Oc1ccc(C(C)(C)C)cc1 (stereo unspecified),outcome,[1],inactive
same,AC50,[2],active: 4.55 µM
same,AC50,[6],inconclusive: 100 µM
same,AC50,[3],inconclusive: 25.2 µM
same,AC50,[4],inconclusive: 100 µM
[Cl][Sn]([c]1ccccc1)([c]1ccccc1)[c]1ccccc1,AC50,[5],inconclusive: 1.4 µM
same,AC50,[2],inconclusive: 0.287 µM
same,AC50,[6],inconclusive: 0.925 µM
same,outcome,[3],inactive
same,outcome,[4],inactive
CC(C)CCCCCCCOC(=O)c1ccccc1C(=O)OCCCCCCCC(C)C,AC50,[1],inconclusive: 100 µM
same,AC50,[5],inconclusive: 100 µM
same,AC50,[2],inconclusive: 100 µM
same,outcome,[6],inactive
same,outcome,[8],inactive
same,AC50,[3],inconclusive: 100 µM
same,outcome,[4],inactive
Oc1ccc2ccc3cccc4ccc1c2c34,AC50,[5],inconclusive: 33.4 µM and inconclusive: 11.1 µM
same,AC50,[6],inconclusive: 0.0717 µM
same,AC50,[9],inconclusive: 53.8 µM and inconclusive: 20.1 µM
same,AC50,[3],inconclusive: 20.2 µM and inconclusive: 11.1 µM
same,outcome,[7],inactive
CCCOCC(=Nc1ccc(Cl)cc1C(F)(F)F)n1ccnc1,outcome,[5],inactive
same,AC50,[2],inconclusive: 18.4 µM
same,AC50,[6],inconclusive: 33.4 µM
same,AC50,[9],inconclusive: 1.72 µM
same,AC50,[3],inconclusive: 1.22 µM
same,outcome,[7],inactive
Clc1ccc(C(c2ccc(Cl)cc2)C(Cl)Cl)cc1,AC50,[1],active: 2.47 µM
same,AC50,[2],inconclusive: 40.8 µM
same,AC50,[6],inconclusive: 100 µM
same,AC50,[9],inconclusive: 25.6 µM
same,AC50,[3],inconclusive: 6.58 µM
same,AC50,[7],inconclusive: 100 µM

# 3 neighbouring entries out of the list so far:
compound,measurement,setting,value
Clc1ccc(C(c2ccc(Cl)cc2)C(Cl)Cl)cc1,AC50,[9],inconclusive: 25.6 µM
same,AC50,[3],inconclusive: 6.58 µM
same,AC50,[7],inconclusive: 100 µM

# — PubChem BioAssay (EPA / NIEHS)
